Measured values published in the GenesisPotency data set.
Out of some 9,700 compounds screened, about 180 (1.9%) were called active. Roughly 35% stayed inconclusive and do not appear here. Calls follow the shape of the full dose curve. Some of the results follow.

Amino acid sequences for entries named in this document (tags omitted). A change or cut given only in a name is not applied to a line headed by its entry.
UniProt P19793: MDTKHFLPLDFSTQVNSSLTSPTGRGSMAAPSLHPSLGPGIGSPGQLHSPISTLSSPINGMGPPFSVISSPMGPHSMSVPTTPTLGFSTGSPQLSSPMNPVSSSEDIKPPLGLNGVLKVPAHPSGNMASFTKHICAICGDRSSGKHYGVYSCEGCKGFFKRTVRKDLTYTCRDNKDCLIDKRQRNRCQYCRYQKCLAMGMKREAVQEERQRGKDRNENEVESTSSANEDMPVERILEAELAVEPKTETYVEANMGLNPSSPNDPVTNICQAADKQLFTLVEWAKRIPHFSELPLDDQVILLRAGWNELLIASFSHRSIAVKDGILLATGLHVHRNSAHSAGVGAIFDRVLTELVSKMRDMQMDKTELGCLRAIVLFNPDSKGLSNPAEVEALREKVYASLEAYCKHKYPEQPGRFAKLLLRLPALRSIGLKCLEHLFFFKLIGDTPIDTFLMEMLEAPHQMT

The molecules below were run against Retinoic acid receptor RXR-alpha, Homo sapiens (UniProt P19793) (assay: qHTS assay to identify small molecule agonists of the RXR signaling pathway (AID 1159527)).

SMILES	outcome
[I-].[Na+]	inactive
